Values of other authors, collected in patent US11913031B2, “Method to reproduce circadian rhythms on a microfluidic chip” (Yissum Research Development Company of the Hebrew …, priority 2017, dated 2024).

Test system: liver
Settings: Table 4 compound list, toxicological end-point; cited from earlier work

Compound: CCCCc1oc2ccccc2c1C(=O)c1cc(I)c(OCCN(CC)CC)c(I)c1 [Amiodarone]
- Toxicity: Steatosis
